Assay results as given in PubChem BioAssay AID651640 (Broad Institute, 2012).
About 6,000 (1.7%) of roughly 350,000 compounds were called active. This list was built around the results that the source calls inconclusive (neither active nor inactive); the mix of calls is not that of the screen. No stated cut-off is given here; in the data, active means CPE inhibition above about 20% (passing the limit was not always enough); inconclusive means no clear call, values can overlap the other calls; tested in BHK-21 cells.

Experiment: protection of cells from dengue 2 killing – plate reader, single concentration, primary screen (AID 651640);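 further: 0% = median of neutral control wells and 100% = median of positive control wells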
Conditions: DENV2-infected cells, cytopathic effect rescue, at 9.99 µM, active compounds read high

| SMILES | CPE inhibition |
| --- | --- |
| COC(=O)c1ccc2nc(C3CCCCC3)c(Cc3ccc(C)cc3)n2c1 | inconclusive: 46.5% |
| COCC(=O)Nc1ccc2c(c1)[C@H]1C[C@H](CC(=O)NCCN3CCCCC3)O[C@H](CO)[C@H]1O2 | inactive: 4.33% |
| CCCNC(=O)N(C)C[C@H]1Oc2ncc(-c3ccc(C(=O)N(C)C)cc3)cc2C(=O)N([C@@H](C)CO)C[C@H]1C | inconclusive: 3.35% |
| Oc1ccc(Cl)cc1CNc1nccs1 | inconclusive: 35.5% |
| C[C@H]1CN([C@@H](C)CO)C(=O)CCCn2cc(nn2)CO[C@H]1CN(C)S(=O)(=O)c1cn(C)cn1 | inconclusive: 53.1% |
| COC(=O)c1ccc(CNC(=O)CCNC(=O)c2ccco2)cc1 | inconclusive: 31.7% |
| Cc1ccc(S(=O)(=O)Nc2ccc3c(c2)C(=O)N([C@@H](C)CO)C[C@@H](C)[C@H](CN(C)C(=O)NC2CCCCC2)OCCCC[C@H](C)O3)cc1 | inactive: 10.5% |
| O=C1CN(Cc2ccccc2)C[C@H]2[C@@H](c3ccc(-c4ccccc4F)cc3)[C@@H](CO)N12 | inactive: -7.83% |
| COCC#Cc1ccc([C@H]2[C@@H](CO)N3CCCCN(S(=O)(=O)c4ccc(OC)cc4)C[C@H]23)cc1 | inconclusive: 21.9% |
| Cc1ccc(S(=O)(=O)N2CC[C@@H]3[C@H](CO)Nc4ccc(Br)cc4[C@@H]32)cc1 | inconclusive: 45.5% |
| C[C@@H]1CN([C@@H](C)CO)C(=O)c2c(c3ccccc3n2C)-c2ccccc2CO[C@H]1CN(C)C(=O)Nc1cccc(Cl)c1Cl | active: 40.4% |
| CCCCN(C(C)=O)c1ccc2c(c1)C1CC2CCN1Cc1ccccc1 (stereo not given) | active: 42.3% |
| COc1ccc(CCN2CC(=O)N3CCc4ccc(N5CCOCC5)cc4C3CC2=O)cc1OC (stereo not given) | inconclusive: 22.1% |
| O=C(NCc1ccccc1)c1ccc(Br)cc1[N+](=O)[O-] | inactive: -1.79% |
| C[C@H]1CN([C@@H](C)CO)C(=O)Cc2cc(NC(=O)Nc3cccc4ccccc34)ccc2O[C@H]1CN(C)Cc1ccc(C(=O)O)cc1 | inactive: 5.37% |
| COCC(=O)Nc1ccc2c(c1)C(=O)N(C)[C@@H]1CC[C@@H](CC(=O)NCC(F)(F)F)O[C@@H]1CO2 | active: 81.3% |
| Cn1cnc(CCNC(=O)C[C@@H]2CC[C@@H]3[C@H](COC[C@@H](O)CN3C(=O)C3CC3)O2)c1 | inconclusive: 26.1% |
| Nc1nc(-c2cccs2)c(CC(=O)O)s1 | inactive: 1.71% |
| C[C@@H]1CN([C@H](C)CO)C(=O)c2cc(-c3ccccc3)cnc2O[C@@H]1CN(C)C(=O)C1CCOCC1 | inconclusive: 36.9% |
| C[C@H](CO)N1C[C@H](C)[C@H](CN(C)C(=O)Nc2ccc(C(F)(F)F)cc2)Oc2ccc(NC(=O)Nc3ccc(C(F)(F)F)cc3)cc2CC1=O | inconclusive: 50.8% |
| O=C1C(Cc2ccccc2)Nc2ncnc(N3CCOCC3)c2N1Cc1ccccc1 (stereo not given) | inconclusive: 56.4% |
| COc1cccc(NC(=O)C(=O)NCC(c2ccco2)N2CCc3ccccc3C2)c1 (stereo not given) | inconclusive: 44.4% |
| O=C(c1nnc(-c2ccccc2)o1)C1CC1 | inconclusive: 20% |

| SMILES | CPE inhibition |
| --- | --- |
| Clc1ccc(C2=NCCn3nc4ccccc4c32)cc1 | inconclusive: 57.4% |
| O[C@@H]1CN(Cc2cccs2)[C@@H](c2ccc(Cl)cc2)C[C@H]1n1cc(C2CC2)nn1 | inconclusive: 23.6% |
| COc1ccc(NC(=O)CSc2nc3ccc(OC)cc3[nH]2)cc1 | inactive: -3.82% |
| COc1ccc(NC(=O)N(C)C[C@H]2OCCCC[C@H](C)Oc3ccc(NS(=O)(=O)c4ccc(F)cc4)cc3C(=O)N([C@H](C)CO)C[C@@H]2C)cc1 | inconclusive: 40.4% |
| O=C(CCCN1C(=O)/C(=C/c2ccccc2Cl)SC1=S)NNC(=O)c1ccccc1 | inconclusive: 36.6% |
| CCCNC(=O)C1(C)CCCN(Cc2cccn2C)C1 (stereo not given) | inconclusive: 66% |
| CC(C)C1(C2CCCC2)NC(=O)NC1=O (stereo not given) | inactive: 4.72% |
| Cc1ccccc1-c1ccc([C@@H]2[C@@H](CO)N3CCCCN(C(=O)c4cccnc4)C[C@@H]23)cc1 | inconclusive: 21.7% |
| O=C(NCc1ccccc1)C1=C[C@@H](c2csc3ccccc23)C[C@@H](OCc2ccc(CO)cc2)O1 | inconclusive: 25.7% |
| COc1ccc(NC(=O)N(C)C[C@H]2Oc3ncc(C#C[C@@H](C)O)cc3C(=O)N([C@@H](C)CO)C[C@@H]2C)cc1 | inactive: 5.88% |
| COC(=O)C1=C(C)N(Cc2ccccc2)C(=NCc2cc(OC)c(OC)c(OC)c2)N[C@H]1CCc1ccccc1 | inconclusive: 46% |
| O=C(NC(=S)Nc1ccccc1CO)C1CCCCC1 | inconclusive: 23.2% |
| C[C@@H]1CN([C@@H](C)CO)C(=O)c2cccc(NC(=O)NC3CCCCC3)c2O[C@@H]1CN(C)S(C)(=O)=O | inconclusive: 22.8% |
| C[C@H]1COC(=O)[C@H](Cc2ccc(F)cc2)C/C=C\C[C@@H](CC(=O)NCCO)C(=O)N1 | inconclusive: 29% |
| COc1ccccc1-n1c(SCC(=O)O)nc2c(sc(=S)n2-c2ccccc2C)c1=O | inactive: 0.925% |
| C=C[C@@H](COC(=O)c1ccc([N+](=O)[O-])cc1)N(Cc1ccc(OC)cc1)S(=O)(=O)c1ccc(Br)cc1 | active: 23.9% |
| CCC(=O)N1[C@@H](CO)[C@@H](c2ccc(-c3ccccc3C)cc2)C12CN(C(C)=O)C2 | active: 60.1% |
| CCOc1cc(S(=O)(=O)N2CCN=C2Cc2ccccc2)ccc1F | inconclusive: 52.5% |
| C/C=C/c1ccc([C@H]2[C@H](CO)N3C(=O)CN(C(=O)Cc4cccnc4)C[C@@H]23)cc1 | inconclusive: 39.5% |
| COc1ccc(CNc2ncnc3c2[nH]c2cc(OC)c(OC)cc23)cc1 | inactive: 5.64% |
| C[C@@H]1CN([C@H](C)CO)C(=O)Cc2cc(NC(=O)c3ccncc3)ccc2O[C@H]1CN(C)S(=O)(=O)c1ccc(F)cc1 | inactive: -1.63% |
| O=C(Nc1ccc2c(c1)[C@@H]1C[C@@H](CC(=O)N3CCc4ccccc4C3)O[C@@H](CO)[C@@H]1O2)NC1CCCC1 | inactive: -0.299% |

10 of these compounds, set out differently.
SMILES	CPE inhibition
Clc1ccc(C2=NCCn3nc4ccccc4c32)cc1	inconclusive: 57.4%
COc1ccc(NC(=O)N(C)C[C@H]2OCCCC[C@H](C)Oc3ccc(NS(=O)(=O)c4ccc(F)cc4)cc3C(=O)N([C@H](C)CO)C[C@@H]2C)cc1	inconclusive: 40.4%
CC(C)C1(C2CCCC2)NC(=O)NC1=O (stereo not given)	inactive: 4.72%
O=C(NCc1ccccc1)C1=C[C@@H](c2csc3ccccc23)C[C@@H](OCc2ccc(CO)cc2)O1	inconclusive: 25.7%
COC(=O)C1=C(C)N(Cc2ccccc2)C(=NCc2cc(OC)c(OC)c(OC)c2)N[C@H]1CCc1ccccc1	inconclusive: 46%
C=C[C@@H](COC(=O)c1ccc([N+](=O)[O-])cc1)N(Cc1ccc(OC)cc1)S(=O)(=O)c1ccc(Br)cc1	active: 23.9%
CCC(=O)N1[C@@H](CO)[C@@H](c2ccc(-c3ccccc3C)cc2)C12CN(C(C)=O)C2	active: 60.1%
CCOc1cc(S(=O)(=O)N2CCN=C2Cc2ccccc2)ccc1F	inconclusive: 52.5%
COc1ccc(CNc2ncnc3c2[nH]c2cc(OC)c(OC)cc23)cc1	inactive: 5.64%
C[C@@H]1CN([C@H](C)CO)C(=O)Cc2cc(NC(=O)c3ccncc3)ccc2O[C@H]1CN(C)S(=O)(=O)c1ccc(F)cc1	inactive: -1.63%
